Data as given in PubChem BioAssay AID652272 (Drosophila RNAi Screening Center, 2013).
Purpose: 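Finding fly genes that regulate Hedgehog signal transduction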 (primary screen). Cells: Drosophila clone 8 (Cl8) cells. Reagent: long dsRNA against Drosophila genes. Measurement: 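Plate reader light from a firefly reporter under a ptc promoter fragment that responds to Hedgehog, with Renilla light as transfection reference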. Scale: firefly Hh reporter signal: higher = more ptc reporter light; Renilla reference signal: higher = more Renilla control light. Rule for the call: 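Hit when the z-score averaged over two replicates is under -2 or over +3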. Meaning of the calls: active = hit: reporter lowered or raised; inactive = not a hit.
The deposit covers about 21,000 reagents; shown is a random part of those with a known target gene and a result. In the full data, 503 (2.4%) were called active. 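Raw plate light values, not normalised; calls rest on replicate z-scores that were not deposited; hits include reporter decreases as well as increases.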 Entries without a mark were called inactive. Reagents against one gene are numbered here. Names joined by + are all predicted targets of the reagent. Reagent sequences are not shown. Not given: the amount of reagent, the time to read-out.

firefly Hh reporter signal, replicate 1	firefly Hh reporter signal, replicate 2	firefly Hh reporter signal, replicate 3	Renilla reference signal, replicate 1	Renilla reference signal, replicate 2	predicted target	dsRNA no.
6.80e5	3.14e5		32922	11478	Syt1 (GeneID 33473)	1
7.23e5	3.05e5		38816	12437	Syt1 (GeneID 33473)	2
5.38e5	2.11e5		28032	9271	Syt1 (GeneID 33473)	3
1.15e5	70292		6037	3890	Syt1 (GeneID 33473)	4
5.90e5	1.06e5		29069	3408	Nha2 (GeneID 42710)	1
82361	40048		3744	1907	Nha2 (GeneID 42710)	2
6.65e5	1.12e5		38108	3552	Nha2 (GeneID 42710)	3
90263	59917		3409	2361	CG3961 (GeneID 40056)	1
1.66e5			106	4038	CG3961 (GeneID 40056)	2
91637	77693		4597	3036	CG5515 (GeneID 42875)	1
98885	76516		3533	2468	GstD6 (GeneID 48339)	1
97856	54854		4001	2528	eco (GeneID 38812)	1
77440	1.51e5		1403	6858	Cyp6v1 (GeneID 33056)	1
94091	84966		2617	5914	Tmem214 (GeneID 34514)	1
1.34e5	78688		3081	5781	Tmem214 (GeneID 34514)	2
1.49e5	73600		3821	5904	Cpr47Ea (GeneID 36188)	1
42658	16657		1543	1629	scrt (GeneID 38469)	1
62636	1.62e5		1741	7012	CG42249 (GeneID 32043)	1
62592	2.24e5		1867	9013	CG42249 (GeneID 32043)	2
96212	70994		4260	2816	morgue (GeneID 33648)	1
58032	59909		1494	1360	CG5866 (GeneID 42097)	1
1.12e5	80464		4512	3350	CG8677 (GeneID 35397)	1
76278	85328		2856	4073	Elovl7 (GeneID 40943)	1
1.41e5	60929		3506	6749	CG16713 (GeneID 33591)	1
88858	50919		2381	4490	Panx (GeneID 37434)	1
2.19e5			4572		CG32461 (GeneID 318042)	1
92301	81483		3526	2756	Art9 (GeneID 41698)	1
83883	78392		2340	6629	RpL29 (GeneID 37430)	1
1.22e5	72491		5316	2856	CG5618 (GeneID 40241)	1
77681	33474		1888	2439	robl62A (GeneID 38170)	1
1.29e5	76668		4613	2779	CG4669 (GeneID 38608)	1
4.43e5	90914		27504	448	Bdbt (GeneID 42503)	1
1.13e5	77224		4605	3584	Usp14 (GeneID 34387)	1

Continued; the last 9 above are carried over.
firefly Hh reporter signal, replicate 1	firefly Hh reporter signal, replicate 2	firefly Hh reporter signal, replicate 3	Renilla reference signal, replicate 1	Renilla reference signal, replicate 2	predicted target	dsRNA no.
88858	50919		2381	4490	Panx (GeneID 37434)	1
2.19e5			4572		CG32461 (GeneID 318042)	1
92301	81483		3526	2756	Art9 (GeneID 41698)	1
83883	78392		2340	6629	RpL29 (GeneID 37430)	1
1.22e5	72491		5316	2856	CG5618 (GeneID 40241)	1
77681	33474		1888	2439	robl62A (GeneID 38170)	1
1.29e5	76668		4613	2779	CG4669 (GeneID 38608)	1
4.43e5	90914		27504	448	Bdbt (GeneID 42503)	1
1.13e5	77224		4605	3584	Usp14 (GeneID 34387)	1
93560	52754		4277	2667	Dis3 (GeneID 42900)	1
81830	54976		1509	3914	Camp (GeneID 36948)	1
88529	48544		3689	1972	Nmda1 (GeneID 36419)	1
1.06e5	2.44e5		4103	10368	Agpat1 (GeneID 32230)	1
1.11e5	2.89e5		4045	11549	Agpat1 (GeneID 32230)	2
1.45e5	1.23e5		5654	5867	Picot (GeneID 36865)	1
64652	54423		6258	4394	CG7386 (GeneID 38719)	1
1.40e5	1.38e5		3380	3336	CG4629 (GeneID 33284)	1
1.14e5	65724		4948	2946	Galphai (GeneID 38765)	1
1.04e5	76017		2658	5815	APC10 (GeneID 36975)	1
91472	1.02e5		4197	3904	orb2 + CG43783	1
48440	44192		4696	3797	orb2 + CG43783	2
1.35e5	78081		6192	3221	orb2 + CG43783	3
73884	58169		1466	4508	Pkd2 (GeneID 34651)	1
87915	1.92e5		2614	7984	CG43327 + CG43328	1
73857	1.42e5		2020	7170	NANS (GeneID 41528)	1
4.51e5	1.01e5		23741	2829	CG4582 (GeneID 43086)	1
58765	91240		2091	2432	CG11286 (GeneID 40919)	1
1.05e5	56564		4621	2576	CG15820 (GeneID 38277)	1
1.15e5	54888		4704	2267	Prip (GeneID 36237)	1
96604	2.04e5		3205	9349	Tsen2 (GeneID 318956)	1
46758	61776		944	2135	Arpc3A (GeneID 41917)	1
1.23e5	54579		3165	5609	CG13999 (GeneID 33826)	1
1.37e5	1.25e5		4896	3844	Phyhd1 (GeneID 41275)	1
87905	51016		1904	4453	CG7191 (GeneID 34058)	1
1.05e5	69625		2519	4727	CG17575 (GeneID 36414)	1
1.66e5	1.13e5		6652	3904	dgo (GeneID 36139)	1
1.31e5	3.48e5		3393	12549	Rbp1-like (GeneID 32293)	1
1.00e5	1.33e5		3408	3674	CG14562 (GeneID 40439)	1
94793	51920		2347	4914	CG1850 (GeneID 35647)	1
1.37e5	47969		4780	1943	rau (GeneID 33814)	1
1.35e5	87609		4749	3456	elm (GeneID 40695)	1
91533	92517		2548	3619	CG6836 (GeneID 40070)	1
62984	1.38e5		1181	2816	PpD3 (GeneID 49779)	1
74104	2.18e5		2362	10992	CG42715 (retired record) (GeneID 10178969)	1
60738	93522		1632	5114	mmd (GeneID 32561)	1
55771	1.49e5		1488	6632	mmd (GeneID 32561)	2
64672	1.78e5		2321	7664	mmd (GeneID 32561)	3
1.21e5	83443		3724	7505	CG16854 (GeneID 34539)	1
72397	5.11e5	1.95e5	2020	3691	CG6340 (GeneID 32482)	1
